{"sequences": {"note": "Chains of the proteins cited; added tags and fusions are not shown.", "UniProt Q8WUY9": "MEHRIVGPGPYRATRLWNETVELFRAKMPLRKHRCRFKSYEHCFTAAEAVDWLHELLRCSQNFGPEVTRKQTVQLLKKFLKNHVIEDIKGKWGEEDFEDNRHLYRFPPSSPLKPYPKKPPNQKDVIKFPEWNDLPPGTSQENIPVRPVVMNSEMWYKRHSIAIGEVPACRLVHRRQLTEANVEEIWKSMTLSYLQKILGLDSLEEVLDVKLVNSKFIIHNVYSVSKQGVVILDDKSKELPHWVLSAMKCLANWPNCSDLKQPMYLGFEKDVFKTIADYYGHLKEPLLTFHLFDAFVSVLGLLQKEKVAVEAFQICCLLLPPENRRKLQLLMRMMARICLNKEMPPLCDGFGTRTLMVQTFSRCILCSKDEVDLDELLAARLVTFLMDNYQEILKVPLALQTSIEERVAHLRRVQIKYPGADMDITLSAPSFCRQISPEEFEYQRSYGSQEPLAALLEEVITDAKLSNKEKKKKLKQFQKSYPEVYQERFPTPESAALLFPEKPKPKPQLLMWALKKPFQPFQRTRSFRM"}, "source": "paper PMC8805966", "target": "T1, kinesin family member 23 (KIF23) (human (endogenous in HCCLM3)) (UniProt Q02241)", "T1 sequence": "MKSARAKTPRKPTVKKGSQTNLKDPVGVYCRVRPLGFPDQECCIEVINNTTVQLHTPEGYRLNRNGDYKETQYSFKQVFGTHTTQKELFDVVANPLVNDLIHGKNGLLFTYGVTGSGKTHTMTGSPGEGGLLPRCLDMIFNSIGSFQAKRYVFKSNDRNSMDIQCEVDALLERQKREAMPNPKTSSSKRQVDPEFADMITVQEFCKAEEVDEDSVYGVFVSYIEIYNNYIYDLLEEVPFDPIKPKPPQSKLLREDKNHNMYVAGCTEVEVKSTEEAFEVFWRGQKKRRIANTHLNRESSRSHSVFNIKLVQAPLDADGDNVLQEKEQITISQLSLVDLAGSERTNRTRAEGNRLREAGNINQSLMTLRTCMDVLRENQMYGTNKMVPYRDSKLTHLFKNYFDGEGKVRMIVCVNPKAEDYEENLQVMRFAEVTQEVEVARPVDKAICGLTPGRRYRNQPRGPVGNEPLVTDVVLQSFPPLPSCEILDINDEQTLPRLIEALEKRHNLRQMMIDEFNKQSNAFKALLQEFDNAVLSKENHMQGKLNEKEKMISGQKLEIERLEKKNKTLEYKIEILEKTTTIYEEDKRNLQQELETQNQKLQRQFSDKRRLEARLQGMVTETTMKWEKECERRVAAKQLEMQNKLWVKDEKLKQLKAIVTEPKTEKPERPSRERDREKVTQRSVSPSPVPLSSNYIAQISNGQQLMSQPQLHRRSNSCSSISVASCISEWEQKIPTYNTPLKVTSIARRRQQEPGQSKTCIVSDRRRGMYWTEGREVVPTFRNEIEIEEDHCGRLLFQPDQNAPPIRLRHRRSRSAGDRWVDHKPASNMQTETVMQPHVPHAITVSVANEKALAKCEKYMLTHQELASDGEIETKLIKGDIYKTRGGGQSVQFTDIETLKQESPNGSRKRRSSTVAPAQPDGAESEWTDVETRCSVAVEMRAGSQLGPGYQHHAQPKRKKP", "assay": "co-IP; HCCLM3 cells lysed in RIPA buffer with protease inhibitors; 2 ug KIF23 or IgG antibody overnight at 4°C, protein A agarose beads 2 h at 4°C, three washes with lysis buffer; Western blot for DEPDC1B", "note": "No constants are given. Whether binding was seen depends on the method and setting. In cells and extracts the contact can be indirect. Some entries that bind do so weakly or less than the wild type."}
{"substance": "DEP domain containing 1B (DEPDC1B) (from UniProt Q8WUY9 1-529)", "values": [{"measurement": "binding", "value": "binds"}]}
